# Experimental data: PubChem BioAssay AID493014 (National Center for Advancing Translational Sciences (NCATS), 2011)
# The other results are listed elsewhere or left out. Further columns of the screen follow, without active or inactive calls. The list favours compounds with an active or inconclusive main result. The note in brackets gives the kind of curve behind each potency; many fits are weak.
# Assay: qHTS Assay to Find Inhibitors of Chronic Active B-Cell Receptor Signaling
# Details: ABC-DLBCL IkBa-CBG/CBR reporter, luminescence ratio (green luciferase fused to IkBa over red control in TMD8 lymphoma cells), 4 h
# How it was run: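 Cell line TMD8 (human ABC DLBCL), stably expressing tet-inducible CBG68-IkBa fusion and CBR; IMDM/0.5% FBS; cpd up to 46 uM; dox induction, 4 h, 37C/5% CO2; dual luminescence; green/red ratio; MG132 control.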
# [1] = measured here: CBR red luminescence, cell number
# [2] = measured here: IkBa-CBG green luminescence
SMILES,AC50 [1],AC50 [2]
Cc1cccc(N(C)S(=O)(=O)c2ccc(-c3cc(C)no3)s2)c1,"7.08 µM [rising, full curve]","8.91 µM [falling, partial curve]"
COc1cc(OC)cc(C(=O)NCC(=O)N2CCC(C)CC2)c1,"35.5 µM [falling, single point]",–
Nc1nn(-c2ccccc2)c(N)c1N=Nc1ccccc1,"8.2 µM [falling, partial curve]",–
Cc1ccc(S(=O)(=O)N2CCOCC2)cc1NC(=O)CN1CCC(Cc2ccccc2)CC1,"17.8 µM [falling, single point]",–
COc1ccc(-c2nc3c4ccccc4n(CC(=O)Nc4ccc(C(C)C)cc4)c(=O)n3n2)cc1,"10 µM [rising, partial curve, poor fit]",–
O=C(Nc1nccs1)c1ccc(-c2ccc(F)cc2)o1,"14.1 µM [falling, single point]",–
O=C(c1cccc(-c2nnc(-c3ccccc3)o2)c1)N1CCCCC1,"4.11 µM [rising, single point]",–
CCn1nnc(NC(=O)c2cc3ccccc3o2)n1,"29.1 µM [falling, single point]",–
COC(=O)C1=C(C)NC(C)=C(C(=O)OC)C1c1ccc(-c2cccc([N+](=O)[O-])c2)o1,"35.5 µM [falling, single point]","35.5 µM [rising, partial curve, poor fit]"
Cc1nn(-c2nc3ccccc3[nH]2)c(=O)c2ccccc12,"1.26 µM [falling, full curve]",–
Cc1ccccc1OCC(O)Cn1c(=N)n(Cc2ccccc2)c2ccccc21 (stereo not given),"15.8 µM [falling, single point]",–
CC1Oc2ccccc2C(=O)N(CC(=O)c2ccc3c(c2)OCCO3)C1=O (stereo not given),"28.2 µM [falling, single point]",–
CC(=O)Nc1cccc(NC(=O)CSc2ncc(-c3ccc(Cl)cc3)n2Cc2ccco2)c1,"25.9 µM [falling, partial curve]",–
COc1cccc(C(=O)Nc2nc3ccccc3[nH]2)c1,"3.26 µM [falling, full curve]",–
Nc1nc(-c2ccc(Cl)cc2)nn1C(=O)c1ccco1,"8.91 µM [falling, partial curve, poor fit]",–
O=C(CCc1ccccc1)Nc1nc2c(F)cc(F)cc2s1,"5.62 µM [falling, partial curve, poor fit]",–
Cc1ccc(OCc2ccc(Br)cc2)c([N+](=O)[O-])n1,"3.16 µM [rising, full curve, poor fit]",–
N#Cc1c(NC(=O)CCC(=O)O)sc2c1CCCC2,"18.4 µM [falling, partial curve, poor fit]",–
O=C(Cc1ccc(Cl)cc1)Nc1ncc([N+](=O)[O-])s1,"5.62 µM [falling, partial curve]",–
CC(=O)Nc1nnc(COc2ccccc2)s1,"35.5 µM [falling, single point]",–
COc1ccccc1NC(=O)CN1CCN(CC(=O)Nc2ccccc2Cl)CC1,"3.98 µM [falling, partial curve, poor fit]",–

SMILES,AC50 [1],AC50 [2]
COc1cc(O)c(C(CCN2CCCC2)c2cc(OC)c(OC)c(OC)c2)c(OC)c1 (stereo not given),"3.55 µM [rising, single point]",–
COCCn1c(C)cc(C(=O)COC(=O)c2ccc(-n3nc(C)cc3C)cc2)c1C,"0.891 µM [rising, full curve, poor fit]",–
C=CCN(c1ccccc1)S(=O)(=O)c1cccc(C(=O)NCC(c2ccccc2OC)N2CCCC2)c1 (stereo not given),"18.4 µM [falling, single point]",–
COc1cc(C(=O)OCC(=O)N2CCN(C(C)=O)CC2)ccc1OCC(C)C,"3.66 µM [rising, single point]",–
COCCN(C(=O)Nc1ccccc1)c1ccccc1,"25.9 µM [rising, single point]",–
Cc1[nH]n(C2=NCCS2)c(=O)c1N=Nc1ccccc1,"15.8 µM [falling, partial curve, poor fit]",–
O=C(c1ccc([N+](=O)[O-])cc1)n1nc(-c2ccccc2)nc1NCc1ccc(F)cc1,"1.16 µM [rising, full curve, poor fit]",–
Cc1ccc(NS(=O)(=O)c2cc3c4c(cccc4c2)C(=O)NC3=O)cc1C,"8.91 µM [falling, partial curve, poor fit]",–
Cc1c(CCOC(=O)c2ccccc2)sc[n+]1CC(=O)c1ccc(Br)cc1,"22.4 µM [falling, partial curve]",–
COc1ccc(NS(=O)(=O)c2cccc(C(=O)NNC(=O)c3ccc(Br)o3)c2)cc1,"10.3 µM [falling, partial curve, poor fit]",–
CC/C(C)=N/NC(=S)NCc1ccco1,"16.4 µM [falling, single point]",–
CCOc1ccc(NC(=O)CN(C)C(=O)c2sc3ccccc3c2Cl)cc1OCC,"2.06 µM [rising, full curve, poor fit]",–
Cc1cccc(NC(=O)c2cc(-c3cc(C)c(C)cc3O)n[nH]2)c1,"7.94 µM [falling, full curve, poor fit]",–
CCC/C(O)=C1\C(=O)CC(C)(C)CC1=Nc1ccc(OC)cc1OC,"35.5 µM [falling, single point]",–
COC(=O)C1CSC(C(=O)OC)N1C(=O)CN1CC(C)OC(C)C1 (stereo not given),"11.6 µM [falling, partial curve, poor fit]",–
O=C(CSc1nc(=O)n(Cc2cccnc2)c2c1CCC2)Nc1cccc(Cl)c1,"0.891 µM [falling, partial curve, poor fit]","15.8 µM [rising, partial curve, poor fit]"
Cc1ccc(Nc2nc(CSc3nnc(-c4cccs4)o3)cs2)cc1,"3.66 µM [falling, single point]",–
O=C(COC(=O)c1cc([N+](=O)[O-])ccc1NCCO)c1ccccc1,"18.4 µM [rising, partial curve, poor fit]",–
CC(=O)c1ccc(NC(=O)c2cccs2)cc1,"13 µM [falling, partial curve, poor fit]",–
CCC(=O)N/C(N)=N/c1nc2ccccc2o1,"11.2 µM [falling, partial curve, poor fit]",–
COc1ccc(C(=O)O)cc1NC(=S)NC(=O)/C=C/c1ccc(C(C)C)cc1,"14.1 µM [falling, partial curve, poor fit]",–

# 2 neighbouring records already listed, quoted:
SMILES,AC50 [1],AC50 [2]
CCOc1ccc(NC(=O)CN(C)C(=O)c2sc3ccccc3c2Cl)cc1OCC,"2.06 µM [rising, full curve, poor fit]",–
Cc1cccc(NC(=O)c2cc(-c3cc(C)c(C)cc3O)n[nH]2)c1,"7.94 µM [falling, full curve, poor fit]",–

# (cont.)

SMILES,AC50 [1],AC50 [2]
O=C(NNC(=O)C1C2C=CC(C2)C1C(=O)O)c1cc(Cl)ccc1O (stereo not given),"1.26 µM [falling, full curve]",–
O=C(CSC(=S)N1CCSCC1)c1ccccc1,"20 µM [falling, single point]",–
N#CC1=C(N)SC(N)=C(C#N)C1c1cccc(Oc2ccccc2)c1,"20.6 µM [falling, single point]",–
CCCC(=O)Nc1ccc(C(=O)n2nnc3ccccc32)cc1,"6.51 µM [falling, single point]",–
CCOC(=O)c1sc(NC(=O)C2CSC3(C)CCC(=O)N23)nc1C (stereo not given),"2.59 µM [falling, partial curve, poor fit]",–
O=C(O)CCN1C(=O)/C(=C\c2cccc(Oc3ccccc3)c2)SC1=S,"2.51 µM [falling, partial curve, poor fit]",–
CC(Oc1ccc(F)cc1)C(=O)Nc1ccccc1C(=O)N1CCCCC1 (stereo not given),"10.3 µM [rising, partial curve]",–
CCCC(=O)Nc1sc2c(c1C#N)CCCC2,"29.1 µM [rising, single point]",–
Cc1cc(N2CCN(c3ccccc3)CC2)nc(-n2nc(C)cc2C)n1,"35.5 µM [rising, single point]",–
CCOC(=O)C1=C(N)OC2=C(C(=O)CC(C)(C)C2)C1c1ccc(C)s1 (stereo not given),"15.8 µM [rising, single point]",–
O=C(O)C1C(C(=O)Nc2ccc(Cl)cc2)C2C=CC1C21CC1 (stereo not given),"23.1 µM [rising, partial curve, poor fit]",–
CC1C/C(=C/c2ccccn2)C(=O)/C(=C/c2ccccn2)C1 (stereo not given),"7.08 µM [falling, full curve]",–
Cc1nnc(SCCn2c(N3CC(C)CC(C)C3)nc3c2c(=O)[nH]c(=O)n3C)s1 (stereo not given),"6.51 µM [rising, single point]",–
CCn1nc(C)cc1C(=O)N1CCCC(C(=O)c2ccc(Oc3ccccc3)cc2)C1 (stereo not given),"12.6 µM [falling, partial curve, poor fit]",–
CN1C(=O)c2ccc(NC(=O)c3c(F)c(F)c(F)c(F)c3F)cc2C1=O,"0.58 µM [falling, partial curve, poor fit]",–
COc1cc(C(=O)N/C(=C\c2cn(S(=O)(=O)N(C)C)c3ccccc23)C(=O)NCCCO)cc(OC)c1OC,"6.31 µM [rising, single point]",–
CC(C)Oc1ccc(C(=O)N2CCN(c3nc4c(F)cc(F)cc4s3)CC2)cc1,"35.5 µM [rising, single point]",–
COc1cc(C(c2nnnn2C(C)(C)C)N2CCN(c3nc4ccccc4s3)CC2)ccc1O (stereo not given),"11.2 µM [falling, partial curve, poor fit]",–
COc1ccc(C(=O)COC(=O)CCn2nnc(-c3cccc(O)c3OC)n2)cc1,"17.8 µM [rising, partial curve, poor fit]",–
O=[N+]([O-])CC(=Nc1ccc(F)cc1)N/N=C\c1oc(O)c2ccccc12,"12.6 µM [falling, partial curve]",–

# Quoted from the listing:
# O=C(c1ccc([N+](=O)[O-])cc1)n1nc(-c2ccccc2)nc1NCc1ccc(F)cc1 | AC50 [1]: 1.16 µM [rising, full curve, poor fit]
# CCOC(=O)C1=C(N)OC2=C(C(=O)CC(C)(C)C2)C1c1ccc(C)s1 (stereo not given) | AC50 [1]: 15.8 µM [rising, single point]
# COc1cccc(C(=O)Nc2nc3ccccc3[nH]2)c1 | AC50 [1]: 3.26 µM [falling, full curve]
